Data on 2 molecules can be found in patent publication US20060035329A1 (CARNEGIE INSTITUTION OF WASHINGTON, published 2006).

Protein sequences, listed by entry. Tags and fused reporters are not part of them. Residues count along the entry.
UniProt P10827, residues 14-490: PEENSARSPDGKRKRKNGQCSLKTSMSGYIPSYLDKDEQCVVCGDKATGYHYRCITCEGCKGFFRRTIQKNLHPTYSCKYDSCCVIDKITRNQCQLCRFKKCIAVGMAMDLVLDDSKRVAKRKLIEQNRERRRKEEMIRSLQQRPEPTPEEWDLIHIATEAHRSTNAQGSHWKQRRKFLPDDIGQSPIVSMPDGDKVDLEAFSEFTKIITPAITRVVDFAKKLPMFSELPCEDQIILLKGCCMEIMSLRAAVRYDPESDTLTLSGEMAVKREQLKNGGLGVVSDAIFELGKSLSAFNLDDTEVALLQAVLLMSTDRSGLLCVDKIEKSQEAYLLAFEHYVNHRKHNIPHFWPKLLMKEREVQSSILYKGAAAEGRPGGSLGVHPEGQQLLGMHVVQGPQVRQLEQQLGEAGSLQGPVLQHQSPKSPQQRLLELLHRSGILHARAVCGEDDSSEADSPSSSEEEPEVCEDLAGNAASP

Test [1] has as its target LexA-hr (hr amino acids 575-1215 fused to the lexA DNA binding domain) (rat). Kind of test: yeast two-hybrid screen (HIS+, lacZ+), LexA-hr bait against VP16-fused human brain cDNA library.
Test [2] has as its target T1, hr fusion protein (hr amino acids 575-1215 fused to either GST or TrpE; which one is not said) (rat) (UniProt P97609).
T1 sequence: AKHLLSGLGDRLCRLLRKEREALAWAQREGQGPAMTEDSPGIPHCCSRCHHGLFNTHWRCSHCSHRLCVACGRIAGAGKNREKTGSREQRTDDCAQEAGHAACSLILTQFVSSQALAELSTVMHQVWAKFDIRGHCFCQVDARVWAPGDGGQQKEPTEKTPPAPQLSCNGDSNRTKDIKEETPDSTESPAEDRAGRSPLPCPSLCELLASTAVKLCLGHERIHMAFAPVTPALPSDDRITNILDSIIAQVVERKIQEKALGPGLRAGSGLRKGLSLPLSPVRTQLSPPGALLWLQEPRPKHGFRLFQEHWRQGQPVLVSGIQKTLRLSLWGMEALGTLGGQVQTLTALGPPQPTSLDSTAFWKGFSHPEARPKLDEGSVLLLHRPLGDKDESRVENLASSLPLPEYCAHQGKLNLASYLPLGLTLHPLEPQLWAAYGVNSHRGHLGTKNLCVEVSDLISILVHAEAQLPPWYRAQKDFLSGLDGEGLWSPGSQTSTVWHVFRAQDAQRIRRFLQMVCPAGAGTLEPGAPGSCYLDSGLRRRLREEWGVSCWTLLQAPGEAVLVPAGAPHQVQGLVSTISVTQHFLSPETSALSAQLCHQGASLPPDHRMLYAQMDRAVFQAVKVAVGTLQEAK
Kind of test: far western, 35S-labeled probe.

These are yes or no findings as the source states them, for the method shown. Some entries that bind do so weakly or less than the wild type. For some assays here: Tags and fused reporters may be left off the sequences shown.

For “clone 2H11, thyroid hormone receptor TRα2 amino acids 14-490 fused to the activation domain of VP16 (from UniProt P10827 14-490)”, in test [1], the binding entry is “binds”.

B1: TRβ1 (35S-labeled, from pTZ18 (rTRβ1)) (receptor, rat, UniProt P18113 1-461, looked up)
chain: MTPNSMTENRLPAWDKQKPHPDRGQDWKLVGMSEACLHRKSHVERRGALKNEQTSSHLIQATWASSIFHLDPDDVNDQSVSSAQTFQTEEKKCKGYIPSYLDKDELCVVCGDKATGYHYRCITCEGCKGFFRRTIQKSLHPSYSCKYEGKCIIDKVTRNQCQECRFKKCIYVGMATDLVLDDSKRLAKRKLIEENREKRRREELQKSIGHKPEPTDEEWELIKTVTEAHVATNAQGSHWKQKRKFLPEDIGQAPIVNAPEGGQVDLEAFSHFTKIITPAITRVVDFAKKLPMFCELPCEDQIILLKGCCMEIMSLRAAVRYDPDSETLTLNGEMAVTRGQLKNGGLGVVSDAIFDLGMSLSSFNLDDTEVALLQAVLLMSSDRPGLACVERIEKYQDSFLLAFEHYINYRKHHVTHFWPKLLMKVTDLRMIGACHASRFLHMKVECPTELFPPLFLEVFED
modifications: 35S-methionine label
Take B1: the binding entry in test [2] was “binds”.
